Reference: patent publication US4234571 (dated 1980)

What was measured:
[1] = general procedure: Boc solid-phase peptide synthesis; Boc-Pro-O-Resin (chloromethyl-polystyrene/1% DVB); DCC/HBT; conditions: whole synthesis, scale 1.4 mmol (half of resin carried on), acetic acid addition salt
[2] = general procedure: Boc solid-phase peptide synthesis; benzhydrylamino-polystyrene-divinylbenzene resin; DCC/HBT; conditions: whole synthesis, scale 0.8 mmol, HF salt

Substance | crude mass [1] [g] | crude mass [2] [g]
pyroglutamyl-histidyl-tryptophyl-seryl-tyrosyl-3-(2-naphthyl)-D-alanyl-leucyl-arginyl-proline ethylamide | 1.39 | 
(pyro)-Glu-His-Trp-Ser-Tyr-3-(2-naphthyl)-D-alanyl-Leu-Arg-Pro-Gly-NH2 |  | 0.8
